Data reported in patent US20180311331A1, “PROGNOSIS AND TREATMENT OF SQUAMOUS CELL CARCINOMAS” (THE REGENTS OF THE UNIVERSITY OF COLORADO, a body corporate, priority 2015, published 2018).
At least one structure is not confirmed: it was looked up by name or label, or the drawing left a doubt.

What was measured:
CaSki cells = test: CXCL14 re-expression by a methylation inhibitor (RT-qPCR, MSP); assay type: cell-based; details: 10 μM decitabine, 6 d
MDSCs = details: phase II clinical trial; cited from earlier work

SMILES | CXCL14 expression in CxCa cells (CaSki cells) | MDSCs and antitumor immune responses in HNSCC patients (MDSCs)
Nc1ncn([C@H]2C[C@H](O)[C@@H](CO)O2)c(=O)n1 [decitabine] | restores CXCL14 expression | 
CN1CC(=O)N2[C@H](c3ccc4c(c3)OCO4)c3[nH]c4ccccc4c3C[C@@H]2C1=O [tadalafil] |  | decreases MDSCs and restores antitumor immune responses
